Source: PubChem BioAssay AID602441 (National Center for Advancing Translational Sciences (NCATS), 2012)
The whole screen tested about 1,300 compounds, of which fewer than 10 were called active. Not shown: some 9% with an inconclusive outcome. Calls follow the shape of the dose curve; as a rule, active = well fitted curve in the direction sought with a large enough effect; inconclusive = small, poorly fitted or top-dose-only effect, or another doubt; inactive = no such curve, though single readings can be large or run the other way. This is one part of the list.

Assay: qHTS for antagonists of the Thyroid Stimulation Hormone Receptor: Hit Validation in Parental Cell Line; also: 0% is about no effect
Details: parental HEK293 cells lacking TSHR, counter-screen; at 56.9 µM (top of the series)
Description: The thyroid-stimulating hormone receptor (TSHR) is a member of the 7 trans-membrane-spanning receptor (7TMR) family of cell surface receptors. TSHR-mediated hyperthyroidism is important in thyroid pathology. The development of small molecule antagonists of TSHR may lead to therapeutic approaches for TSHR-mediated hyperthyroidism caused by constitutively activating mutations or stimulating auto-antibodies associated with Graves' disease. Graves' disease is the leading cause of hyperthyroidism and is caused by autoantibodies that stimulate TSHR (TsAbs) causing thyroid growth and unregulated overproduction of thyroid hormones and existing treatments have liabilities (agranulocytosis). In addition, TSHRs are known to be expressed in multiple extrathyroidal tissues including bone, brain, kidney, testis, fat and cells of the immune system but the role of the TSHR in these tissues is not clear. Therefore, TSHR antagonists/inverse agonists could be used as probes of extrathyroidal TSHR function. Finally, TSHR inverse agonists, which are a subclass of antagonists that inhibit agonist-independent (or basal or constitutive) TSHR signaling, could be used to inhibit TSH-independent signaling in patients with recurrent or metastatic thyroid cancer who are receiving thyroid hormone to suppress TSH.
In collaboration between scientist from the NCGC and the NIDDK, a miniaturized HTRF high-throughput screen was developed. It's a cell based assay, where an anti cAMP antibody contains a fluorescent cryptate tag (excitation 337 nm; emission 620 nm) and the acceptor is cAMP-d2 (excitation 620 nm; emission 665 nm). When antibody and cAMP-d2 interact and are excited by a 337 nm light, a FRET occurs resulting in emission at 665 nm. The assay is competition between cAMP-d2 and cAMP (from the cell lysate). The homogeneous protocol allows for one step dispense after stimulation that is automation friendly. This is a hit validation assay in a counterscreen using parental HEK 293 cells lines.
NIH Chemical Genomics Center [NCGC]
NIH Molecular Libraries Probe Centers Network [MLPCN]
Assay Provider: Marvin Gershengorn, NIDDK
An anti cAMP antibody contains a fluorescent cryptate tag (excitation 337 nm; emission 620 nm) and the acceptor is cAMP-d2 (excitation 620 nm; emission 665 nm). When antibody and cAMP-d2 interact and are excited by a 337 nm light, a FRET occurs resulting in emission at 665 nm. The assay is competition between cAMP-d2 and cAMP (from the cell lysate). The homogeneous protocol allows for one step dispense after stimulation that is automation friendly. This assay uses parental HEK-EM 293 cells

Row | Compound | activity change, negative = inhibition
1 | Cc1nc2ccccc2c(=O)n1-c1cccc(C(F)(F)F)c1 | inactive: 4.59%
2 | COC(=O)C1=C(c2ccc(-c3ccccc3)c(F)c2)C[C@@H]2CC[C@H]1N2C(=O)NCCOc1ccccc1 | inactive: 0.638%
3 | CC12CCC3C(CC=C4CC5(CCC43C)OCCO5)C1CCC2=O (centres undefined) | inactive: 1.45%
4 | COC(=O)C1=C(c2ccc(OCc3ccccc3)cc2)C[C@@H]2CC[C@H]1N2C(=O)NCc1cccc(OC)c1 | inactive: 7.23%
5 | COC(=O)C1=C(c2ccc(-c3ccccc3)c(F)c2)C[C@@H]2CC[C@H]1N2C(=O)NCCc1ccccc1 | inactive: 0.764%
6 | C[C@]12CC[C@H](O)C[C@H]1CC[C@@H]1C2CC[C@]2(C)[C@@H](C3=CC(=O)OC3)[C@@H](O)C[C@]12O (some centres undefined) | inactive: -1.32%
7 | Cc1ccc(-n2c(C)nc3ccccc3c2=O)c(C)c1 | inactive: 3.25%
8 | Oc1ccc(-[n+]2c(-c3ccccc3)cc(-c3ccccc3)cc2-c2ccccc2)cc1 | inactive: -10.6%
9 | COC(=O)C1=C(c2ccc(-c3ccccc3)c(F)c2)C[C@@H]2CC[C@H]1N2C(=O)NCc1ccc(F)cc1 | inactive: -1.78%
10 | COc1ccc(-[n+]2c(-c3ccccc3)cc(-c3ccc(C)cc3)cc2-c2ccccc2)cc1 | inactive: -8.58%
11 | CCN(CC)S(=O)(=O)c1ccc(NN=C(C#N)C#N)cc1 | inactive: -3.54%
12 | C[C@]12CC[C@H]3[C@@H](CC[C@]4(O)C[C@@H](O)CC[C@]34C=O)[C@@]1(O)CC[C@@H]2C1=CC(=O)OC1 | inactive: -2.73%
13 | COC(=O)C1=C(c2ccc(OC(F)(F)F)cc2)C[C@@H]2CC[C@H]1N2C(=O)N1CCC(C)CC1 | inactive: -2.64%
14 | Nc1ccc(C2(c3ccc(N)cc3)c3ccccc3-c3ccccc32)cc1 | inactive: 2.12%
15 | COC(=O)C1=C(c2ccc(-c3ccccc3)c(F)c2)C[C@@H]2CC[C@H]1N2C(=O)NCCCOC(C)C | inactive: 0.51%
16 | COC(=O)C1=C(c2ccc(-c3ccccc3)c(F)c2)C[C@@H]2CC[C@H]1N2C(=O)N1CCOCC1 | inactive: 1.35%
17 | CNc1ccc2oc(C[C@H]3O[C@@]4(CC[C@H]3C)O[C@H]([C@H](C)C(=O)c3ccc[nH]3)[C@H](C)C[C@H]4C)nc2c1C(=O)O | inactive: 36%

Row | Compound | activity change, negative = inhibition
18 | COc1cc(C(C)=O)ccc1OC(=O)N(C)c1ccccc1 | inactive: 4.74%
19 | COc1cc(N2C(=O)CC(=O)NC2=O)cc(OC)c1OC | inactive: 4.16%
20 | O=C(Nc1ccc2ccccc2c1)c1nn(C23CC4CC(CC(C4)C2)C3)cc1Br | inactive: -1.47%
21 | CCCCN=C[C@]12CCC(O)CC1(O)CCC1[C@@H]2CC[C@]2(C)[C@H](C3C=CC(=O)O3)CCC12O (some centres undefined) | inactive: -5.86%
22 | O=C(C1CCN(c2nc3ccc(Br)cc3s2)CC1)N1CCC2(CC1)OCCO2 | inactive: -8.68%
23 | COC(=O)C1=C(c2ccc(-c3ccccc3)c(F)c2)C[C@@H]2CC[C@H]1N2C(=O)NCC1CC1 | inactive: -3.4%
24 | C[C@H]1O[C@@H](OC2CC[C@]3(C=O)[C@H]4CC[C@]5(C)[C@@H](C6=CC(=O)OC6)CC[C@]5(O)[C@@H]4CC[C@]3(O)C2)CC2OC(C)(C)OC21 (some centres undefined) | inactive: -3.08%
25 | CNc1cc(Cl)c2nonc2c1[N+](=O)[O-] | inactive: -11.7%
26 | CNc1ccc2nc3ccccc3[n+](C)c2c1 | inactive: -9.64%
27 | CC(=O)c1ccc2c(c1)C1C(Cl)C(Sc3ccccc3[N+](=O)[O-])CC1C(C(=O)O)N2 (centres undefined) | inactive: -9.2%
28 | COc1cc2c(cc1/C=C/[N+](=O)[O-])OCO2 | inactive: -8.58%
29 | C[C@]12CC[C@H](O)C[C@H]1CC[C@@H]1[C@@H]2CC[C@]2(C)[C@@H](C3=CC(=O)OC3)CC[C@]12O | inactive: -15.8%
30 | C[C@]12CCC3C(CCC4=CC(O)CC[C@@]43/C=N/O)C1(O)CCC2C1=CC(=O)OC1 (some centres undefined) | inactive: -6.66%
31 | COC(=O)C1=C(c2ccc(-c3ccccc3)c(F)c2)C[C@@H]2CC[C@H]1N2C(=O)NCc1ccco1 | inactive: 2.82%
32 | COC(=O)C1=C(c2ccc(-c3ccccc3)c(F)c2)C[C@@H]2CC[C@H]1N2C(=O)NC(C)C | inactive: 1.51%
33 | C[C@]12CC[C@H]3C(CCC4(O)CC(O)CC[C@]34C=O)C1=CC[C@H]2c1ccc(=O)oc1 (some centres undefined) | inactive: -5.86%
34 | Cc1ccccc1-c1nc(CS(=O)CC(=O)N2CCC3(CC2)OCCO3)c(C)o1 (centres undefined) | inactive: -0.666%

Looked up one by one from above (two):
Row | Compound | activity change, negative = inhibition
34 | Cc1ccccc1-c1nc(CS(=O)CC(=O)N2CCC3(CC2)OCCO3)c(C)o1 (centres undefined) | inactive: -0.666%
22 | O=C(C1CCN(c2nc3ccc(Br)cc3s2)CC1)N1CCC2(CC1)OCCO2 | inactive: -8.68%
